Record: PubChem BioAssay AID504764 (Drosophila RNAi Screening Center, 2011)
The deposit covers about 22,000 reagents; this is an unselected part of those that have a named target and a result. Of all reagents, 403 (1.9%) are marked active. 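Unnormalised raw counts per well; ratio z-scores behind the hit calls and whether each hit raises or lowers signal are not deposited.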 Names joined by + are all predicted targets of the reagent. Not stated in the record: the amount of reagent.

Aim: 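Genome-wide screen for regulators of Notch-driven gene expression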 (primary screen)
Cell system: Drosophila Kc167 cells
Reagent: long dsRNA against Drosophila genes
Duration: about 5 days (4 days dsRNA, then 24 h after transfection)
Challenge: transfection of constitutively active membrane-tethered Notch lacking the extracellular domain, read 24 h later
Detection: 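Light from a Notch-responsive E(spl)m3 luciferase reporter under active Notch, with control-promoter and no-Notch reporter wells to normalise; raw counts from paired wells a and b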
Direction: induced reporter light, run 1, well a and induced reporter light, run 1, well b: higher = more light from the Notch target reporter with active Notch; control promoter light, run 1, well a and control promoter light, run 1, well b: higher = more light from the viral control promoter (cell number, transfection, viability); uninduced reporter light, run 1, well a: higher = more light from the Notch target reporter without active Notch
Rule for the call: 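Wells with low control signal or poorly matching duplicates excluded; duplicates averaged; per source plate, z beyond ±2 for induced/control log2 ratio or beyond ±1.8 for induced/uninduced marks a hit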
Calls: active = modifier hit (raised or lowered Notch signal); inactive = not a hit

gene knocked down	dsRNA	induced reporter light, run 1, well a	induced reporter light, run 1, well b	control promoter light, run 1, well a	control promoter light, run 1, well b	uninduced reporter light, run 1, well a	Call
Amy-d (Amylase distal)	DRSC05919	1.04e5	91595	87995	1.06e5	8055	inactive
Spt6	DRSC18836	27530	23692	37910	29685	2095	inactive
teq (Tequila)	DRSC10298	2.09e5	2.58e5	3.03e5	2.90e5	18025	inactive
teq (Tequila)	DRSC11301	2.46e5	2.36e5	3.68e5	3.37e5	13970	inactive
teq (Tequila)	DRSC11302	2.27e5	2.45e5	2.93e5	2.71e5	14615	inactive
S (Star)	DRSC00785	47390	42455	19850	12090	7880	inactive
Hex-t2 (Hexokinase testis 2)	DRSC22517						inactive
Mur82C (Mucin related 82C)	DRSC12011	1.34e5	1.54e5	1.08e5	1.11e5	17220	inactive
Mur82C (Mucin related 82C)	DRSC12212	1.48e5	1.33e5	1.48e5	1.43e5	10120	inactive
CG14402	DRSC02386	1.01e5	60830	64275	81645	3385	inactive
CG31612	DRSC03697	56630	47490	53655	57980	2510	inactive
CG31612	DRSC03698	33460	32255	41210	37150	2020	inactive
Sox14 (Sox box protein 14)	DRSC04656	1.80e5	1.94e5	1.63e5	1.49e5	11870	inactive
GluRIB + CG42509 (retired record)	DRSC10258	2.32e5	2.06e5	3.11e5	3.46e5	13025	inactive
GluRIB + CG42509 (retired record)	DRSC11177	2.86e5	2.07e5	4.63e5	4.14e5	12110	inactive
CG3597	DRSC00617	1.47e5	1.44e5	1.08e5	67990	12275	inactive
CG6398	DRSC19992	1.14e5	1.05e5	91610	63470	9645	inactive
Octbeta1R (Octopamine beta1 receptor)	DRSC16134	1.88e5	1.75e5	1.91e5	2.11e5	13540	inactive
yellow-e2	DRSC15169	2.39e5	2.29e5	2.71e5	2.26e5	19975	inactive
Mal-B1 (Maltase B1)	DRSC02416	1.89e5	1.69e5	1.29e5	1.57e5	22605	inactive
Ir52d (Ionotropic receptor 52d)	DRSC06264	83165	88465	1.24e5	1.36e5	7590	inactive
kkv (krotzkopf verkehrt)	DRSC12315	1.05e5	1.47e5	68125	74255	8885	inactive
polyph (polyphemus)	DRSC06254	2.26e5	2.06e5	2.66e5	2.84e5	18435	inactive
Abca3 (ATP binding cassette subfamily A member 3)	DRSC20546	78370	83195	89245	98610	9470	inactive
CG32055	DRSC10666	95760	1.07e5	76100	27170	8270	inactive
tws (twins)	DRSC12767	1.48e5	1.31e5	1.24e5	1.17e5	10415	inactive
tws (twins)	DRSC17092	89160	92120	1.23e5	93955	8038	inactive
byn (brachyenteron)	DRSC11332	2.04e5	1.62e5	3.06e5	1.97e5	11545	inactive
inv (invected)	DRSC07633	1.44e5	1.52e5	2.05e5	1.94e5	14120	inactive
Rab8	DRSC11261	1.22e5	1.09e5	69295	1.19e5	8725	inactive
CG11362	DRSC04106	1.30e5	1.30e5	1.35e5	1.24e5	8665	inactive
CG11362	DRSC22032						inactive
CG43078	DRSC10292	1.33e5	1.13e5	82865	45445	11455	inactive
CG43078	DRSC10608	1.27e5	1.32e5	80140	47545	11960	inactive

Copied from above (3 entries):
gene knocked down	dsRNA	induced reporter light, run 1, well a	induced reporter light, run 1, well b	control promoter light, run 1, well a	control promoter light, run 1, well b	uninduced reporter light, run 1, well a	Call
GluRIB + CG42509 (retired record)	DRSC11177	2.86e5	2.07e5	4.63e5	4.14e5	12110	inactive
CG3597	DRSC00617	1.47e5	1.44e5	1.08e5	67990	12275	inactive
CG6398	DRSC19992	1.14e5	1.05e5	91610	63470	9645	inactive
